From paper PMC4719301 come the findings set out here.

The chains behind the UniProt entries cited, without tags or fusion partners.
UniProt P47941: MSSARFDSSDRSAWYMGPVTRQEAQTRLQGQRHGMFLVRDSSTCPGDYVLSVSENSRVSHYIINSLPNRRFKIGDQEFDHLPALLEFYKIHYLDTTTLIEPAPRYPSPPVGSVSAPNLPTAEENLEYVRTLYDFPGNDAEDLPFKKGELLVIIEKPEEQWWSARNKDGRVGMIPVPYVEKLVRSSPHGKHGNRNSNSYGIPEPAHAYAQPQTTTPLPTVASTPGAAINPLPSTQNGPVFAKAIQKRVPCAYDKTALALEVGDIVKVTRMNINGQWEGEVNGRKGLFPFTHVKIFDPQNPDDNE
UniProt Q920M5: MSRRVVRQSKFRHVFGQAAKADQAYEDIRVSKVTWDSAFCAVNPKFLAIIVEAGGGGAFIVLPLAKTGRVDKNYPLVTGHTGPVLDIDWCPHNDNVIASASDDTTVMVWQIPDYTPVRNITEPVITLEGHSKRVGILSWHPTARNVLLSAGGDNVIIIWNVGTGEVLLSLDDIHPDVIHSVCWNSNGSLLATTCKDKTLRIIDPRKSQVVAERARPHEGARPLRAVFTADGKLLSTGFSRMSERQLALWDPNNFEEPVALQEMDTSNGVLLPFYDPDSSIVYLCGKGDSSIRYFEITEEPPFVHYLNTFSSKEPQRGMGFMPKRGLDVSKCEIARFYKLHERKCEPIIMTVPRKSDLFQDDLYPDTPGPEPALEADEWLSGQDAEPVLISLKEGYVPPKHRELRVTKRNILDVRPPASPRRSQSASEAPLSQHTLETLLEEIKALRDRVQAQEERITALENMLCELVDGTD
UniProt E9Q7D5: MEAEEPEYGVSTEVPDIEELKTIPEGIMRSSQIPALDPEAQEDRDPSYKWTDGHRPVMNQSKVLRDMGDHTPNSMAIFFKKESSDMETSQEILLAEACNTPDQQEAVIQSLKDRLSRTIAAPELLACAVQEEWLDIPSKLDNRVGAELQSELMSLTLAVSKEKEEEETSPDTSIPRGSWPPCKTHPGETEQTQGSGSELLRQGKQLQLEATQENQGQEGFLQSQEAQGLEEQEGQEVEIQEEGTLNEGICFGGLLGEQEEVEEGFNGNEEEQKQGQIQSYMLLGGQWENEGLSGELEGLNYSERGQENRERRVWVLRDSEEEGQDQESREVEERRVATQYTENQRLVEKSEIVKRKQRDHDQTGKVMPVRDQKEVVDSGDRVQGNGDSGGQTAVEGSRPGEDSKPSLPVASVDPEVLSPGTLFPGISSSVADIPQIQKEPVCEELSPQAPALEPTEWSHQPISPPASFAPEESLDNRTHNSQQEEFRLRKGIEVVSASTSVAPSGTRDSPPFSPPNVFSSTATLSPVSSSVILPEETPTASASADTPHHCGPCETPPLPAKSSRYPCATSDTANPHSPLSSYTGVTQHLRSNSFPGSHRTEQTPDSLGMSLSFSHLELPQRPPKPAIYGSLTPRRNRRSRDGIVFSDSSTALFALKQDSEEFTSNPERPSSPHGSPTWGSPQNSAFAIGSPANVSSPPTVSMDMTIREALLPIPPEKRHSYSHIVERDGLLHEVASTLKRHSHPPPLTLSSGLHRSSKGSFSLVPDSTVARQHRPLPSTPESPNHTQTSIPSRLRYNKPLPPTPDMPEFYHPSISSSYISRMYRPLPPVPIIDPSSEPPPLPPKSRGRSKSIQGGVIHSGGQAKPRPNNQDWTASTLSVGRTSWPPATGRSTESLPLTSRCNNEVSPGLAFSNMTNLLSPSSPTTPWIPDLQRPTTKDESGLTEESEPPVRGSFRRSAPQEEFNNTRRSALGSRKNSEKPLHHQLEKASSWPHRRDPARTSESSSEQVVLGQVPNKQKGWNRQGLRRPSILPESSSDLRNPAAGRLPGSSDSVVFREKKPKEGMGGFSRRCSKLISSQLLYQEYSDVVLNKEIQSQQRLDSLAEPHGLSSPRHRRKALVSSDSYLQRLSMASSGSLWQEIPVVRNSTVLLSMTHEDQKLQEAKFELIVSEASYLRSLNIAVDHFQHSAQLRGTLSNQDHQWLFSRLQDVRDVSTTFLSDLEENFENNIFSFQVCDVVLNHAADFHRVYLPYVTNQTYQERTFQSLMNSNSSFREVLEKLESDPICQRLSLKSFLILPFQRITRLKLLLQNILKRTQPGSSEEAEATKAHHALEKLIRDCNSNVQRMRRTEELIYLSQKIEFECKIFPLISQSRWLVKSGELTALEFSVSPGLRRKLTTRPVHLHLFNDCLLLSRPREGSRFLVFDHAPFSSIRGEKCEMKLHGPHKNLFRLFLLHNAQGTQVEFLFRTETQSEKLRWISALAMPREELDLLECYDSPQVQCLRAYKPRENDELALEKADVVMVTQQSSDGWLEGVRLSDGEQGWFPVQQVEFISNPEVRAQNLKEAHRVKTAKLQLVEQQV
UniProt Q69Z38: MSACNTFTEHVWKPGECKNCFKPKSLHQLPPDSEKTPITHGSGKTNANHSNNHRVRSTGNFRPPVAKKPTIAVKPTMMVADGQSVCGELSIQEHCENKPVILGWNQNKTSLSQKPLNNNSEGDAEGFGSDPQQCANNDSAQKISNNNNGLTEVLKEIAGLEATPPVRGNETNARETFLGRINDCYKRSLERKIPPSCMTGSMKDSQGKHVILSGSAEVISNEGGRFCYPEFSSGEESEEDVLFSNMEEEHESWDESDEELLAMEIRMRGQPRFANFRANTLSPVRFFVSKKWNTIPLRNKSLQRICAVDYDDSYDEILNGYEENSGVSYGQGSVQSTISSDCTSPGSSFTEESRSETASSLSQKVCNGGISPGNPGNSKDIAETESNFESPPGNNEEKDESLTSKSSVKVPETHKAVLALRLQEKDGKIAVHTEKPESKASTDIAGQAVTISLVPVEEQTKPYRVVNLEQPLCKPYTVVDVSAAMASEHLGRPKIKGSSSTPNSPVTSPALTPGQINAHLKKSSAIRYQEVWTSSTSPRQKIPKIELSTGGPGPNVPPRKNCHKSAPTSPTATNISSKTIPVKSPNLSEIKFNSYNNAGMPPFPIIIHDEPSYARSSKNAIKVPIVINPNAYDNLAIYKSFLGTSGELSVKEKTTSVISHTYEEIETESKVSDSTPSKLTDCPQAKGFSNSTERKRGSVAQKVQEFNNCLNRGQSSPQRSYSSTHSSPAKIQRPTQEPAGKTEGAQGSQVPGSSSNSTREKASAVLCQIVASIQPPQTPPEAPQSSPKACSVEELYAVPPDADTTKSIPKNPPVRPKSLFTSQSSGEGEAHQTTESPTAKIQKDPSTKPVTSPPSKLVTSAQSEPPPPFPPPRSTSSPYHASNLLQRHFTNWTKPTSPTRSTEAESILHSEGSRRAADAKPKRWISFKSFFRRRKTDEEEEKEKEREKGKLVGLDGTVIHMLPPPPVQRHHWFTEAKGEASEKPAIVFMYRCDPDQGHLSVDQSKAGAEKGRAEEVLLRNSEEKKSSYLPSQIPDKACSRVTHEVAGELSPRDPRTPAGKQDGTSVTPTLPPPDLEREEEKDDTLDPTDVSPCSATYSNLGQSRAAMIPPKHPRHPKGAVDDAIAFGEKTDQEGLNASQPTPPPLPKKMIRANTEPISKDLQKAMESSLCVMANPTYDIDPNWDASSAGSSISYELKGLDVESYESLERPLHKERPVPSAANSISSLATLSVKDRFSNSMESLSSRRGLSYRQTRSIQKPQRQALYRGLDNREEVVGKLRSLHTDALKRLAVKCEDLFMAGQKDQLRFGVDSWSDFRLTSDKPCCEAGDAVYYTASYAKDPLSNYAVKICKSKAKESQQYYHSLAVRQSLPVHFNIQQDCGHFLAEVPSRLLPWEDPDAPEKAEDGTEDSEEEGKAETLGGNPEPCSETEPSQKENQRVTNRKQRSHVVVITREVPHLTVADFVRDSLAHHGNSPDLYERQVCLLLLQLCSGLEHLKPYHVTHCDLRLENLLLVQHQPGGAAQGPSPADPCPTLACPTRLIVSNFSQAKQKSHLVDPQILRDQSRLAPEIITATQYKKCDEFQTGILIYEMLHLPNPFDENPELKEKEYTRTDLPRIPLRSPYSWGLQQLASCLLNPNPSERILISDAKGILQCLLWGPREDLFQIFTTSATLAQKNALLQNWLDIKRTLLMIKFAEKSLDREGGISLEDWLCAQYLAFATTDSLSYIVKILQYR

No constants are given. Whether binding was seen depends on the method and setting. In cells and extracts the contact can be indirect. These calls come from enrichment with a bait or labelling near it, and not all partners need be listed.

For the assay, the target named is TAP-CrkL (mouse) (UniProt P47941). The assay is described as follows: affinity purification with mass spectrometry; TAP-CrkL purified from lysates of transfected C2C12 myotubes; SDS-PAGE, silver stain, gel slices digested with trypsin, LC-MS/MS, iBAQ; compared with a sham control.

With coronin-6 (from UniProt Q920M5 1-471), the binding entry is reported as “binds”.
Under Arhgef5 (from UniProt E9Q7D5 1-1581) stands “binds”; under utrophin (from UniProt E9Q6R7 1-3430), “binds”; under Sgk269 (from UniProt Q69Z38 1-1735), “binds”.
Under DOCK1 (from UniProt Q8BUR4 1-1865) stands “binds”.
